Results on two molecules are retold here after PMC7501309, “Structure and mechanism of a dehydratase/decarboxylase enzyme couple involved in polyketide β-methyl branch incorporation” (Scientific Reports, 2020).

In assay [1] the target is PksH-D68A (Bacillus subtilis 168) (UniProt P40805). Nature of the assay: SEC; PksH point mutants compared with the wild type; data not shown; both purified.
Assay [2] concerns the target PksH-E137A (Bacillus subtilis 168) (UniProt P40805). Described as above.

Numbering of substitutions follows the chain as printed. Names may count otherwise. Results are given in words; binding and its absence hold for the method and conditions named. Some entries that bind do so weakly or less than the wild type.

B1: PksH-D68A (enzyme, UniProt P40805 1-259)
chain: MDLVTYQTIKVRFQASVCYITFHRPEANNTINDTLIEECLQVLNQCETSTVTVVVLEGLPEVFCFGAAFQEIYQEMKRGRKQASSQEPLYDLWMKLQTGPYVTISHVRGKVNAGGLGFVSATDIAIADQTASFSLSELLFGLYPACVLPFLIRRIGRQKAHYMTLMTKPISVQEASEWGLIDAFDAESDVLLRKHLLRLRRLNKKGIAHYKQFMSSLDHQVSRAKATALTANQDMFSDPQNQMGIIRYVETGQFPWEDQ
In the case of B1, in assay [1], the binding result is given as “binds”.

B2: PksH-E137A (enzyme, UniProt P40805 1-259)
chain: B1 chain with A68D, E137A
As for B2, in assay [2], the binding entry is recorded as “binds”.
